From the supplement of paper PMC11006884
The list shows a part of the results, in another mix than the full data.

Amino acid sequences for entries named in this document (tags omitted). A change or cut given only in a name is not applied to a line headed by its entry.
UniProt P41250: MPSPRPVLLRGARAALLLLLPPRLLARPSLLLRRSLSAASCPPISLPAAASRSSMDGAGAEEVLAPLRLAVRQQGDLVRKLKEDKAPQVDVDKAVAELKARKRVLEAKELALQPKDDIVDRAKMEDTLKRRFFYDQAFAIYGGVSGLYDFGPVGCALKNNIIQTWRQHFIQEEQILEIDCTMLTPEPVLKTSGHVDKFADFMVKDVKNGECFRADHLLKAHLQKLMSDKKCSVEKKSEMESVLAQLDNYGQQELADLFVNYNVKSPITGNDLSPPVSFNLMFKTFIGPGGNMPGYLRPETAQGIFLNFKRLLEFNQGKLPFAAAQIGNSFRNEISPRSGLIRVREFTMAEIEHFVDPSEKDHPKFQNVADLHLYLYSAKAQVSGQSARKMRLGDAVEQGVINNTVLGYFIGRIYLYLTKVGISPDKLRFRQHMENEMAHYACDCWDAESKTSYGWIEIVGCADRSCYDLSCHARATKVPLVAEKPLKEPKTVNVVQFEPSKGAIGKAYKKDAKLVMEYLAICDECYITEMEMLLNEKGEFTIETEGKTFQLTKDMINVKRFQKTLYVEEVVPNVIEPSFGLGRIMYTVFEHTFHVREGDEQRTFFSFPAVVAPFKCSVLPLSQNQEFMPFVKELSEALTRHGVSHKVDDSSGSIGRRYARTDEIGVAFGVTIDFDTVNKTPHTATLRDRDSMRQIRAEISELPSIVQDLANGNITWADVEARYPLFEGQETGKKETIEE
UniProt P35269, whole entry: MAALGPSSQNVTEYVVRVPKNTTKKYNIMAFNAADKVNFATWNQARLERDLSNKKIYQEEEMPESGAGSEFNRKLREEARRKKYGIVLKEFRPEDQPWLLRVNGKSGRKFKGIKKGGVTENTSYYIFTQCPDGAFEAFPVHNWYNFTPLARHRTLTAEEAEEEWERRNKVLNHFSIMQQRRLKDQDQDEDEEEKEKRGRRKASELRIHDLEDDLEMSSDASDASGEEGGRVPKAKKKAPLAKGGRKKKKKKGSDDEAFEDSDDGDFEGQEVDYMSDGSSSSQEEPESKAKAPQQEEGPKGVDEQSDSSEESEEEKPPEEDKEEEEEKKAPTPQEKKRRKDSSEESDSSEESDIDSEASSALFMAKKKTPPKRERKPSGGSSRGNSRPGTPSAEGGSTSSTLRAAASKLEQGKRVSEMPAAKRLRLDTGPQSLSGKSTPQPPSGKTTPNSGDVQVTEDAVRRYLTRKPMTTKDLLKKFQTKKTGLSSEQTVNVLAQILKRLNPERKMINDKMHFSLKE
UniProt P31150: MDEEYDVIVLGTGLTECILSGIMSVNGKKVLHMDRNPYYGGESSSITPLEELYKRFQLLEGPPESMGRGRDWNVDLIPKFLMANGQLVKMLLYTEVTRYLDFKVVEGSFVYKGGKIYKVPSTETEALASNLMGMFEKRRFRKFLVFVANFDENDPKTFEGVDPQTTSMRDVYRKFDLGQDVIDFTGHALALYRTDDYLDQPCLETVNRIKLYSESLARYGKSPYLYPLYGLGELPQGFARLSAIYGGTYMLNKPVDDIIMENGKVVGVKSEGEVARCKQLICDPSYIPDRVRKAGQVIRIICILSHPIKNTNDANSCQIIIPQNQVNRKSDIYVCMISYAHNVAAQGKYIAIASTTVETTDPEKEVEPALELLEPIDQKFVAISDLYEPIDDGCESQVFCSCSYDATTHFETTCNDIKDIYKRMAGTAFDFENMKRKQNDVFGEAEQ
UniProt P35613: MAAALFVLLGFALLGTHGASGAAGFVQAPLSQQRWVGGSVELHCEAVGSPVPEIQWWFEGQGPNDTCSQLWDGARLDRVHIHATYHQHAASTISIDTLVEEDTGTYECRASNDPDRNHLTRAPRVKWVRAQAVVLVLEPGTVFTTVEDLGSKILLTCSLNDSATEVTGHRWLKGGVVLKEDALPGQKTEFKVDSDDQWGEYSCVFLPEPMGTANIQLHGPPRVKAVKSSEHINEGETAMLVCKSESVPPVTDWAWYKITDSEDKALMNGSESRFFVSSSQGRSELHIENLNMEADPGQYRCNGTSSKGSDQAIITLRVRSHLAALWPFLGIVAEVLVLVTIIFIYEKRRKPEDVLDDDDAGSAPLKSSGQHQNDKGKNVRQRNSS
UniProt P31930: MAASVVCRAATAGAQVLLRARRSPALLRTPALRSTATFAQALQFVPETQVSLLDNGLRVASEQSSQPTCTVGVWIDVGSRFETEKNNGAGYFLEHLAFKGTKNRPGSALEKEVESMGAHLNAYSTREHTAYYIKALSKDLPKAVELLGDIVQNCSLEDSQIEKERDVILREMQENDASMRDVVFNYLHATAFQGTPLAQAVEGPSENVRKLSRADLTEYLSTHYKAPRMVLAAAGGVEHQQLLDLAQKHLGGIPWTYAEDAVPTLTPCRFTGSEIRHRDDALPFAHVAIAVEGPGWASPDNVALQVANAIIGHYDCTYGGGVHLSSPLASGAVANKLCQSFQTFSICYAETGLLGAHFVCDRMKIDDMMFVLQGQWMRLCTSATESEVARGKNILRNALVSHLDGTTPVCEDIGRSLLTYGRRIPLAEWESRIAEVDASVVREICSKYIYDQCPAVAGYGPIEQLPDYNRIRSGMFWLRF
UniProt P34949: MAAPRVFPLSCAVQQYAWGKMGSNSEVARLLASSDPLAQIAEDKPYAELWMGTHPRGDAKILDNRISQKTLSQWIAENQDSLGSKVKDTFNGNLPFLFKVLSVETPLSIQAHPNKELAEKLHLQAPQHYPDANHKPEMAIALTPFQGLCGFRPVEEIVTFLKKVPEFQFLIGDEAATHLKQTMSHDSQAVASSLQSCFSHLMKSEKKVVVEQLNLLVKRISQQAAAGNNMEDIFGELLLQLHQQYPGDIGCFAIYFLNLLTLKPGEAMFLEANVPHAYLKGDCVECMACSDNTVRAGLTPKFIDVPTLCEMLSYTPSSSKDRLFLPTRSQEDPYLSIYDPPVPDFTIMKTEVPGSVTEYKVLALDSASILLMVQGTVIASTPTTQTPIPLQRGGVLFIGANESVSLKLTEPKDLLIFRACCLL
UniProt P38117: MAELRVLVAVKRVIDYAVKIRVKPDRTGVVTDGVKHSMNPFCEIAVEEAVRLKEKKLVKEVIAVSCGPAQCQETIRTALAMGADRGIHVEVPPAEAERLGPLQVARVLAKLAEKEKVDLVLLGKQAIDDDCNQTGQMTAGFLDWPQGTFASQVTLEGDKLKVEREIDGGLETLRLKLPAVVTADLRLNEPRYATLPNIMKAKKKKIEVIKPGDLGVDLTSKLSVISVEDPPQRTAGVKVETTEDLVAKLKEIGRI
UniProt P36551: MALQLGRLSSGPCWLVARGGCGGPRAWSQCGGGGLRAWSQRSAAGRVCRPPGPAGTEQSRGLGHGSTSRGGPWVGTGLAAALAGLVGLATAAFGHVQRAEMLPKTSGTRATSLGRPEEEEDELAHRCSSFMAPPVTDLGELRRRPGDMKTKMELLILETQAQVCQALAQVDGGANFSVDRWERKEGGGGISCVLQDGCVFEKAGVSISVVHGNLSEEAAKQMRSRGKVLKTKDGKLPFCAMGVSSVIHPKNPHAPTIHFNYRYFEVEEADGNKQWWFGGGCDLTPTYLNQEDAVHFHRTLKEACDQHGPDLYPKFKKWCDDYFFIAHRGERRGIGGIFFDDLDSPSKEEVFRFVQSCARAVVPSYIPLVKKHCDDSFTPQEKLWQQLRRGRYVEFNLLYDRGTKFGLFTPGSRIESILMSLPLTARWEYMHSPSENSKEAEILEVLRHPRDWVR
UniProt P31948, whole entry, looked up: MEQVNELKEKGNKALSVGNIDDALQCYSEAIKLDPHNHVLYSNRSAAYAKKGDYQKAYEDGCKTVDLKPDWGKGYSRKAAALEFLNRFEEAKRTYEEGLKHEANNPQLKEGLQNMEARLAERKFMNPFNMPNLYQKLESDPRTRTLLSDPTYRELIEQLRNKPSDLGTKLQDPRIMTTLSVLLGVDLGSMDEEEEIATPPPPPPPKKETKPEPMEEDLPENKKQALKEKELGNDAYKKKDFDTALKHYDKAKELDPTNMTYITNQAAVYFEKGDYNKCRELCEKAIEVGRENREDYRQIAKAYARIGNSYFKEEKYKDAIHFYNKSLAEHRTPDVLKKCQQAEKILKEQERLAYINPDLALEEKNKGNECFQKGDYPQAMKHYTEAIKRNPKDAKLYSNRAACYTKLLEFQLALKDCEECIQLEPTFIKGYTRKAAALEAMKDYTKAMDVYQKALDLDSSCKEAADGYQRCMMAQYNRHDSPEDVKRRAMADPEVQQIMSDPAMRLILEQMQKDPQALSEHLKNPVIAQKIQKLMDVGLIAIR
UniProt P41567, whole entry, looked up: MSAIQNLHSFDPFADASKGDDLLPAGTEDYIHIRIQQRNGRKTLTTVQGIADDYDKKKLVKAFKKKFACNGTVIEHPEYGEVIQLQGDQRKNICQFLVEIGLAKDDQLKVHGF
UniProt P31939: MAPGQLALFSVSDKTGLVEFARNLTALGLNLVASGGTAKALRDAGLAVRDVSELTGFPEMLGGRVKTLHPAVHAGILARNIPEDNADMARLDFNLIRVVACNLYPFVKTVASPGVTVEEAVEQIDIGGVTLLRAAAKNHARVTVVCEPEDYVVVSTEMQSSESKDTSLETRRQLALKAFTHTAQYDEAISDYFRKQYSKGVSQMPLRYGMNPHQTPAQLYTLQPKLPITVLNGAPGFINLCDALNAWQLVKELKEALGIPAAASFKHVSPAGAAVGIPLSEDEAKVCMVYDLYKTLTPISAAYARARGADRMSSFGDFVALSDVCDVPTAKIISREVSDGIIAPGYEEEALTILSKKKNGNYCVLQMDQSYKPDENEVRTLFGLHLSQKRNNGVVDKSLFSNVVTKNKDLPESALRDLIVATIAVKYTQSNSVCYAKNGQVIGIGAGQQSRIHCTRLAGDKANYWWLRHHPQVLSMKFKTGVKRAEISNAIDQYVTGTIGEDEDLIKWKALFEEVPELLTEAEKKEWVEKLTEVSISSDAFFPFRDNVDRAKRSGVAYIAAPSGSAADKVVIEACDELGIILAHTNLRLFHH
UniProt P35637: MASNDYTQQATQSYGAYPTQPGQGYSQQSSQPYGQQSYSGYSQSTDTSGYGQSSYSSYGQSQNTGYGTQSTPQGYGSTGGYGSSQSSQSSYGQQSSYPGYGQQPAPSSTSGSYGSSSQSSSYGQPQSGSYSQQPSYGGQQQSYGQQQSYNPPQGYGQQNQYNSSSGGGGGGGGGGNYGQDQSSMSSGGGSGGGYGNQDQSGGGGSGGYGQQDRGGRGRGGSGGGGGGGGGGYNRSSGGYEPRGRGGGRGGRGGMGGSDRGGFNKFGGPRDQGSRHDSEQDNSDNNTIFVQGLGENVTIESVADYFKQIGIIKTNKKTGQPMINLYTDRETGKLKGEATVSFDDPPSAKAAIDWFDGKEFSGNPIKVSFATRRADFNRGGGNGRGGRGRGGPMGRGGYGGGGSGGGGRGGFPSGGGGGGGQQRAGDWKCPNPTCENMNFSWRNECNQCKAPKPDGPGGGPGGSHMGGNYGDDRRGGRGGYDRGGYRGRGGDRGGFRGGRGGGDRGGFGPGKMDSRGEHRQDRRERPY
UniProt P30307: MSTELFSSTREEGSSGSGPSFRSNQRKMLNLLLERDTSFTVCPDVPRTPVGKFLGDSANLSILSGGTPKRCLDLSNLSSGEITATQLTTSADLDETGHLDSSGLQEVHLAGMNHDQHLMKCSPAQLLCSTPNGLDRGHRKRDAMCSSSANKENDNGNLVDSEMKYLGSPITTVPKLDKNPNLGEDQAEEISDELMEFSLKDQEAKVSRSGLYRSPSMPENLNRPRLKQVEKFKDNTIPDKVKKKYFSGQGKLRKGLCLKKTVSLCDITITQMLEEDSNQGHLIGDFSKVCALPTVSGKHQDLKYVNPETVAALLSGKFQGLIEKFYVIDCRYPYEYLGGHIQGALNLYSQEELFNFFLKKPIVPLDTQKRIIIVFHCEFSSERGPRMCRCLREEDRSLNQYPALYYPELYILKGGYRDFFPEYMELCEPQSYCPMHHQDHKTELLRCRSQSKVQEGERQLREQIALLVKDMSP
UniProt P38432, whole entry, looked up: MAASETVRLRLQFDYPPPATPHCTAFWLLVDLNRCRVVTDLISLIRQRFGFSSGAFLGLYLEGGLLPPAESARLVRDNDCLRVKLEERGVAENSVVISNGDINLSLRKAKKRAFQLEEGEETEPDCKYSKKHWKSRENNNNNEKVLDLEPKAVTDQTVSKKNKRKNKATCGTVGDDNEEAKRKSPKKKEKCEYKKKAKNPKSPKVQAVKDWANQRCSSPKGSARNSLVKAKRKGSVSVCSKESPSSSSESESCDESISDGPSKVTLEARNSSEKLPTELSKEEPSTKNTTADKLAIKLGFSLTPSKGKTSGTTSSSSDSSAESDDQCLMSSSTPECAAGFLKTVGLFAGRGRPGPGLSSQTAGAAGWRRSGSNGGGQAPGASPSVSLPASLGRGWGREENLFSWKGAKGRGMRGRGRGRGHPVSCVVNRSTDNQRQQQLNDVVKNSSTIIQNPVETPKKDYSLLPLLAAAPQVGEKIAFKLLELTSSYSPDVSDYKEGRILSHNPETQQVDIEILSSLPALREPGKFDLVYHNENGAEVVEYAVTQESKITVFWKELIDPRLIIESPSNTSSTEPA

compound: COC(=O)C#Cc1ccccc1 [methyl 3-phenylpropiolate]; test: log2 ratio of iodoacetamide-alkyne labeling of the cysteine site, DMSO over compound (competition); higher = stronger covalent engagement of the cysteine by the compound, active = 1 or more; details: 500 µM; treatment time 1 h; system: HEK293T cell lysate
Outline: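 For each cysteine, the log2 competition ratio is mean control-channel reporter intensity over mean compound-channel reporter intensity. HEK293T lysate (2 mg/mL) was exposed to vehicle or electrophile (500 µM, 1 h, ambient temperature), labelled with iodoacetamide alkyne (1 h), clicked to sCIP-TMT reagents, digested overnight with trypsin at 37 °C, streptavidin-enriched and analysed by Orbitrap Eclipse LC-MS/MS with FAIMS and FragPipe. Cysteines quantified in only one of three replicates, each with duplicate channels, were excluded.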

Target | log2 ratio of iodoacetamide-alkyne labeling
UniProt P41250_C211 | inactive: -0.0782
GTF2F1 C130 (UniProt P35269) | inactive: 0.48
GDI1 C202 (UniProt P31150) | inactive: 0.0604
TMPO C570 (UniProt P42166) | active: 1.16
RPL4 C125 (UniProt P36578) | inactive: 0.361
BSG C242 (UniProt P35613) | inactive: 0.215
UQCRC1 C268 (UniProt P31930) | inactive: 0.113
MPI C309 (UniProt P34949) | inactive: -0.0967
ETFB C42 (UniProt P38117) | inactive: 0.207
CPOX C239 (UniProt P36551) | inactive: -0.177
STIP1 C370 (UniProt P31948) | inactive: 0.241
STIP1 C471 (UniProt P31948) | inactive: -0.107
LRPPRC C571 (UniProt P42704) | inactive: 0.236
EIF1 C69 (UniProt P41567) | inactive: 0.0567
UniProt P41250_C616 | inactive: -0.119
POLR2B C945 (UniProt P30876) | inactive: 0.456
ATIC C363 (UniProt P31939) | inactive: 0.3
FUS C444 (UniProt P35637) | inactive: -0.312
TMPO C341 (UniProt P42166) | active: 1.77
UniProt P42285_C110 | inactive: -0.148
CDC25C C42 (UniProt P30307) | inactive: 0.613
COIL C126 (UniProt P38432) | inactive: 0.729

Single entries from the entries so far.
Entry for FUS C444 (UniProt P35637) under log2 ratio of iodoacetamide-alkyne labeling: inactive: -0.312
Entry for CDC25C C42 (UniProt P30307) under log2 ratio of iodoacetamide-alkyne labeling: inactive: 0.613
